From patent US20240418731A1
No constants are given. Whether binding was seen depends on the method and setting. In cells and extracts the contact can be indirect. Some binding calls cover weakened binding; strength is not graded here.

Assays:
H-2Kb (mouse) = H-2Kb (mouse) (UniProt P01901); assay: immunoprecipitation of MHCI from MC-38 cells, peptide elution, LC-MS/MS
H-2Db (mouse) = H-2Db (mouse) (UniProt P01899); assay: as above

Row | Binder | binding (H-2Kb (mouse)) | binding (H-2Db (mouse))
1 | SIIVFNLL [Dpagt1 mutant peptide SIIVFNLL] | binds | 
2 | AQLANDVVL [Reps1 mutant peptide …] |  | binds
3 | ASMTNMELM [Adpgk mutant peptide …] |  | binds
4 | SSPYSLHYL [Cpne1 mutant peptide …] |  | binds
5 | AALLNSAVL [Irgq mutant peptide …] |  | binds
6 | MAPIDHTTM [Aatf mutant peptide …] |  | binds
7 | DPSSSVLFEY [Med12 mutant peptide …] | binds | 
